Assay results from publication PMC8140593 (PeerJ, 2021).

Assay: general procedure: solution-phase peptide synthesis; pentafluorophenyl trifluoroacetate / bis(pentafluorophenyl) carbonate (pentafluo)

With “l-alanyl-γ-d-glutamyl-l-alanyl-d-alanine trifluoroacetate” as the substance, how does the step yield (late stage modification step) read?
Its step yield is 92%.

Which step yield (coupling step) does the source give for “Nα-tert-butoxycarbonyl-l-alanyl-α-tert-butyl-d-glutamyl-l-alanyl-d-alanine tert butyl ester” here?
The step yield was 62%.
